Taken from: PubChem BioAssay AID686937 (Drosophila RNAi Screening Center, 2013)
Purpose: 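Knock-downs that reduce output of a secreted reporter enzyme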 (primary screen). System: Drosophila S2 cells expressing secreted horseradish peroxidase. Knock-down reagent: long dsRNA against Drosophila genes. Duration: about 5.5 days (5 days dsRNA, then 12 h reporter induction). Treatment: reporter expression induced after 5 days of dsRNA, read 12 h later; inducer not stated. Measurement: 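After 5 days of dsRNA and 12 h of reporter induction, medium peroxidase read by chemiluminescence and scored as per-plate z-score; higher values mean more reporter released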. Reading the numbers: z-score: higher = more reporter secreted into medium.
The deposit covers about 23,000 reagents; below is an unselected part of those with a known target gene and a result. 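Reduced-secretion tags in replicate 1 do not always agree with the z-scores; no criterion for assigning the tags was given.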 The record does not give: the amount of reagent.

gene	DRSC id	z-score, replicate 1	z-score, replicate 2	z-score, replicate 3	z-score, replicate 4	phenotype, replicate 1
CG13154 (GeneID 36359)	DRSC06279	-2.57	-0.44			reduced secretion
CG31051 (GeneID 261634)	DRSC15034	0.33	0.6			
mbf1 (GeneID 39842)	DRSC11365	0.3	0.32			
foi (GeneID 38976)	DRSC10719	-0.29	-0.23			
Daao2 (GeneID 33955)	DRSC02135	0.41	0.26			
rau (GeneID 33814)	DRSC03125	0.07	0.28			
Meltrin (GeneID 3772109)	DRSC16274	0.16	0.21			
Meltrin (GeneID 3772109)	DRSC21693	0.28	-0.06			
CheA84a (GeneID 3771856)	DRSC12669	0.13	0.49			
CG11865 (GeneID 34917)	DRSC01872	-0.36	0.2			
Cnx14D (GeneID 32620)	DRSC20214	0.23	0.63			
borr (GeneID 34245)	DRSC02749	-1.64	-1.04			reduced secretion
Prm (GeneID 39002)	DRSC08941	0.38	0.54			
Prm (GeneID 39002)	DRSC08942	0.27	0.33			
Prm (GeneID 39002)	DRSC11255	0.01	-0.17			
krimp (GeneID 36804)	DRSC06578	0.12	0.24			
CG34289 (GeneID 5740640)	DRSC13625	0.46	0.39			
fd3F (GeneID 31336)	DRSC17843	-3.35	-1.56			reduced secretion
Idi (GeneID 42526)	DRSC15918	0.26	0.19			
knrl (GeneID 40285)	DRSC11892	0.15	-0.03			
Cyp4p1 (GeneID 45524)	DRSC07372	0.38	0.33			
Polr1H (GeneID 42563)	DRSC14594	0.2	-0.98			
Atg2 (GeneID 38344)	DRSC08273	-0.05	-0.02			
CG11843 (GeneID 43432)	DRSC14401	0.16	0.01			
RpL9 (GeneID 34526)	DRSC03418	-4.7	-4.54			reduced secretion
CG2004 (GeneID 31809)	DRSC18200	0.29	0.6			
POSH (GeneID 36990)	DRSC07499	0.51	0.34			
CG13110 (GeneID 34253)	DRSC02208	0.27	0.4	0.37	0.23	
CG40378 (retired record) (GeneID 3355048)	DRSC20958	0.15	0.42			
CG40378 (retired record) (GeneID 3355048)	DRSC22174	-0.69	-0.08			
GNBP-like3 (GeneID 37313)	DRSC06385	0.29	0.09			
spag (GeneID 43958)	DRSC04717	0.47	0.2			
Naxd (GeneID 40085)	DRSC09722	0.27	0.29			
CG4553 (GeneID 43078)	DRSC15595	-0.04	0.16			
mRpL3 (GeneID 32523)	DRSC20100	0.25	0.02			
kon (GeneID 35104)	DRSC02033	0.56	0.35			
CAH14 (GeneID 37359)	DRSC04234	0.01	0.43			
CAH14 (GeneID 37359)	DRSC22160	-0.07	0.12			
lace (GeneID 34910)	DRSC03564	0.27	0.09			
cni (GeneID 34967)	DRSC03512	0.01	0.34			
Pfas (GeneID 33847)	DRSC03480	0.1	0.15			
ApepP (GeneID 35029)	DRSC01866	-0.17	0.01			
Nufip (GeneID 40043)	DRSC10397	0.24	0.43			
lectin-37Da (GeneID 3346222)	DRSC03278	0.09	-0.14	0.33	0.37	
lectin-37Da (GeneID 3346222)	DRSC22729	0.75	0.12			
CG33282 (GeneID 2768939)	DRSC00422	0.32	0.34			
La (GeneID 35305)	DRSC03358	0.19	0.38			
Ssl2 (GeneID 43424)	DRSC14395	0.34	0.52			
Ssl2 (GeneID 43424)	DRSC22796	0.11	-0.14			
eIF3d1 (GeneID 42789)	DRSC16938	-0.01	-0.39			
CG10680 (GeneID 35282)	DRSC02093	0.32	0.22			
trk (GeneID 34376)	DRSC03625	-0.37	0.17			
Fip1 (GeneID 40569)	DRSC12147	-0.22	-0.29			
TrpA1 (GeneID 39015)	DRSC10544	0.34	0.27			
CG13720 (GeneID 38557)	DRSC08329	0.18	0.36			
lncRNA:CR43491 (GeneID 12797991)	DRSC19184	0.12	1.79			

9 entries already listed, ordered by “z-score, replicate 1”, lowest first.
gene	DRSC id	z-score, replicate 1	z-score, replicate 2	z-score, replicate 3	z-score, replicate 4	phenotype, replicate 1
fd3F (GeneID 31336)	DRSC17843	-3.35	-1.56			reduced secretion
Atg2 (GeneID 38344)	DRSC08273	-0.05	-0.02			
Prm (GeneID 39002)	DRSC11255	0.01	-0.17			
krimp (GeneID 36804)	DRSC06578	0.12	0.24			
knrl (GeneID 40285)	DRSC11892	0.15	-0.03			
Polr1H (GeneID 42563)	DRSC14594	0.2	-0.98			
Idi (GeneID 42526)	DRSC15918	0.26	0.19			
Cyp4p1 (GeneID 45524)	DRSC07372	0.38	0.33			
CG34289 (GeneID 5740640)	DRSC13625	0.46	0.39			
